Laboratory results reported in patent CN115746137A.
Results are given in words; binding and its absence hold for the method and conditions named. Some results given as binding are weak or reduced against the parent protein; the word gives no strength.

Protein sequences, listed by entry. Tags and fused reporters are not part of them. Residues count along the entry.
UniProt P01732, residues 22-235: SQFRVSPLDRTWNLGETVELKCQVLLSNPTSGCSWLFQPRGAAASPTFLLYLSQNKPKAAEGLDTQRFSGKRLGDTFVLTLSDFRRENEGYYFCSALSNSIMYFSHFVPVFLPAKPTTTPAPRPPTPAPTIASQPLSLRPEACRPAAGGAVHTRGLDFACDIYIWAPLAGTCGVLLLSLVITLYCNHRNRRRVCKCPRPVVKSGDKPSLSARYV

Target: CD8抗原 (on the cell surface; CD8 T cells of human PBMC) (human) (UniProt P01732)
Experiment: staining of cell-surface CD8 (Fig. 2A); method not described further

binding: binds
B1: CD8-7抗体 (antibody, V domains shown)
VH: EVQLQQSGAEVKKPGASVKVSCKASGFNIKDTYIHWVRQAPGKGLEWMGRIDPANDNTLYARKFQGRVTITADTSTNTAYMELSSLRSEDTAVYYCTRGYGYYVFDTWGQGTTVTVSS
VL: DIKMTQSPSSLSASVGDRVTITCRTSRSISQYLAWYQEKPGKTNKLLIYSGSTLQSGIPSRFSGSGSGTDFTLTISSLQPEDFATYYCQQVNEFPVTFGAGTKLEIK
